# Measurements reported in PubChem BioAssay AID504834 (National Center for Advancing Translational Sciences (NCATS), 2011).
# The whole screen tested about 320,000 compounds, of which about 22,000 (6.9%) were called active. Inconclusive results, whose numbers are uncertain, are shown with a selection of clear calls. Calls come from the whole dose curve; as a rule, active = well fitted inhibition curve with a large enough effect; inconclusive = small, poorly fitted or top-dose-only effect, or another doubt; inactive = no such curve, though single readings can be large or run the other way. Where the call is inconclusive, the potency comes from a doubtful curve fit.
# Experiment: Primary qHTS for delayed death inhibitors of the malarial parasite plastid, 96 hour incubation
# Conditions: P. falciparum luciferase reporter growth; series mostly up to 28.7 µM; activity change, negative = inhibition: at the top concentration
# How it was run: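 Compounds incubated with erythrocytes infected by luciferase-expressing P. falciparum (2% hematocrit, 0.05% parasitemia final) for 96 hours, 37 C in 5% CO2. Growth inhibition scored as decreased luciferase luminescence.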
# % is set by controls: 0 for no effect and ±100 for the full control effect; potency is the fitted concentration of half-maximal effect.
SMILES,"activity change, negative = inhibition",Potency
CCN(C(=O)CO/N=C/c1ccc(OC)cc1OC)c1c(N)n(Cc2ccccc2)c(=O)[nH]c1=O,inactive: -0.806%,–
CCOc1cc(Br)cc(C(c2c(C(=O)O)[nH]c3ccccc23)c2c(C(=O)O)[nH]c3ccccc23)c1O,–,"inconclusive: 10.4 µM [inhibitor, partial curve]"
O=C(Nc1ccc(N2CCCC2)cc1)c1cccc(Cl)c1Cl,–,"inconclusive: 16.5 µM [inhibitor, single point]"
Cc1cc(C(C)(C)C)oc1C(=O)N(CC(=O)NC1CCCC1)Cc1ccccc1,–,"inconclusive: 8.28 µM [inhibitor, partial curve]"
Cc1ccccc1S(=O)Cc1ccc(C(=O)NC2CC2)o1 (centres undefined),inactive: -3.61%,–
COc1ccc(CCn2c(-c3ccc(OC)cc3)nc3c(c(=O)c4ccccc4n3C)c2=O)cc1,–,"inconclusive: 2.33 µM [inhibitor, partial curve]"
CCO[C@@H]1OC(C(=O)N2CCN(Cc3ccc4c(c3)OCO4)CC2)=C[C@H](C)[C@H]1CCCO,–,"inconclusive: 18.5 µM [inhibitor, single point]"
CCOC(=O)c1nc(Nc2ccccc2C)c2ccccc2n1,–,"inconclusive: 11.7 µM [inhibitor, single point]"
Cc1cc(C(=O)N2CCCC(CNS(=O)(=O)c3cccs3)C2)nn1C (centres undefined),inactive: -17.7%,–
C/C(=N\N1CCN(Cc2ccc(Cl)cc2)CC1)c1ccc(F)cc1,–,"inconclusive: 13.1 µM [inhibitor, single point]"
CC(NC(=O)C(=O)NCCC1=CCCCC1)c1ccccc1 (centres undefined),–,"inconclusive: 11.7 µM [inhibitor, single point]"
CCOc1ccc(/C=N/n2cc(-c3ccccc3)[nH]c2=S)cc1,–,"inconclusive: 18.5 µM [inhibitor, single point]"
Cn1cc(NC(=O)c2cc(NC(=O)c3cc(NC=O)cn3C)cn2C)cc1C(=O)NCCC(=N)N,–,"inconclusive: 13.1 µM [inhibitor, partial curve, poor fit]"
COc1ccccc1-n1c(CNC(=O)c2ccc(S(=O)(=O)N3CCOCC3)cc2)n[nH]c1=S,–,"inconclusive: 18.5 µM [inhibitor, single point]"
Oc1ccccc1Oc1c(F)c(F)nc(N2CCCC2)c1F,–,"inconclusive: 13.1 µM [inhibitor, single point]"
COc1cccc(CNc2nc3ccccc3n2C(C)C)c1O,–,"inconclusive: 1.85 µM [inhibitor, single point]"
c1coc(CNCCc2c[nH]c3ccccc23)c1,–,"inconclusive: 18.5 µM [inhibitor, single point]"
CCOCC(=O)Nc1cc(C)on1,–,"inconclusive: 0.522 µM [inhibitor, partial curve, poor fit]"
COc1ccc2cc(CN(C(=O)Nc3ccccc3)C3CCCC3)c(=O)[nH]c2c1,–,"inconclusive: 1.47 µM [inhibitor, partial curve, poor fit]"
CCOc1ccc(CN2CCN(CC(O)Cn3c4ccccc4c4ccccc43)CC2)cc1 (centres undefined),–,"inconclusive: 9.28 µM [inhibitor, partial curve, poor fit]"
CCC(CC)C1C(C#N)=C(N)Oc2cc(C)oc(=O)c21 (centres undefined),inactive: -12.9%,–
O=C(NCC1CCCO1)c1ccc(COc2ccccc2)cc1 (centres undefined),–,"inconclusive: 18.5 µM [inhibitor, single point]"

SMILES,"activity change, negative = inhibition",Potency
CC[C@H](NC(C)C)[C@H](O)c1ccc(O)c(O)c1,–,active: 13.5 µM
CC1=C(C(=O)OCc2ccccc2)C(c2ccc(Cl)cc2)NC(=O)N1CCCC(=O)O (centres undefined),–,"inconclusive: 11.7 µM [inhibitor, partial curve, poor fit]"
Cc1cc(N(C)C)ccc1N=Nc1ccc2ncccc2c1,–,"inconclusive: 10.4 µM [inhibitor, single point]"
CCOC(=O)c1c(C)[nH]c(C)c1C(=O)COC(=O)c1sccc1C,–,"inconclusive: 18.5 µM [inhibitor, single point]"
CCC(=O)c1ccc(OC(=O)/C=C/c2cc(OC)c(OC)c(OC)c2)cc1,inactive: 24.6%,–
CC(C)COc1ccc(S(=O)(=O)NNC(=O)c2cc3ccccc3o2)cc1,–,"inconclusive: 5.22 µM [inhibitor, partial curve]"
COC(=O)CCN1CCN(S(=O)(=O)c2ccc3c(c2)OCCO3)CC1,inactive: -26.3%,–
O=C(CP(=O)(c1ccccc1)c1ccccc1)Nc1nc2ccccc2s1,–,"inconclusive: 18.5 µM [inhibitor, single point]"
Cc1ccc(-c2cc(C(=O)N3CCCC(C(F)(F)F)C3)c3ccccc3n2)o1 (centres undefined),–,"inconclusive: 18.5 µM [inhibitor, partial curve, poor fit]"
O=C(c1ccc(F)cc1)N1CCN2C(=O)c3ccccc3C12c1ccccc1 (centres undefined),–,"inconclusive: 18.5 µM [inhibitor, single point]"
Cc1ccc(S(=O)(=O)Nc2c(C)cc(C)nc2Cl)cc1,–,active: 2.62 µM
CSc1ccc(CN(C)Cc2cc(=O)oc3c(C)c(C)ccc23)cc1,inactive: -16.1%,–
C=CCOc1c(Br)cc(CNc2ccc(NC(=O)C(C)C)cc2)cc1OCC,–,active: 13.1 µM
CCOc1ccccc1CN1CCC(n2nccc2NC(=O)C2CCCC2)CC1,inactive: -11.2%,–
O=C(CN1C(=O)COc2ccc(S(=O)(=O)N3CCCCC3)cc21)NCc1ccccc1Cl,–,"inconclusive: 18.5 µM [inhibitor, single point]"
CCOC(=O)c1ccc(Nc2nc(C(=O)OCC)nc3ccccc23)cc1,inactive: -14.7%,–
Cc1ccc(/C=C2\CCn3c2nc2cc(C(=O)O)ccc2c3=O)c(C)c1,–,"inconclusive: 14.7 µM [inhibitor, single point]"
Cn1ccnc1Sc1nc2ccccc2nc1NS(=O)(=O)c1ccccc1,–,"inconclusive: 16.5 µM [inhibitor, partial curve, poor fit]"
Cc1ccc(NP(=O)(c2ccccc2)c2nc3ccccc3s2)cc1 (centres undefined),inactive: 26%,–
COC(=O)[C@@H](NC(=O)N1CCC(Cc2ccccc2)CC1)C(C)C,inactive: 16.2%,–
Cc1ccc(C)c(CN2C(=O)c3ccccc3S(=O)(=O)c3ccc(C(=O)N4CCN(C)CC4)cc32)c1,inactive: 0%,–
O=C(Cn1cnc2ccccc2c1=O)NCC(=O)N1CCOCC1,–,"inconclusive: 10.4 µM [inhibitor, single point]"

# Filtered by structure: those above containing an aryl thioether with sulfur outside any ring
SMILES,"activity change, negative = inhibition",Potency
CSc1ccc(CN(C)Cc2cc(=O)oc3c(C)c(C)ccc23)cc1,inactive: -16.1%,–
Cn1ccnc1Sc1nc2ccccc2nc1NS(=O)(=O)c1ccccc1,–,"inconclusive: 16.5 µM [inhibitor, partial curve, poor fit]"
